No constants are given. Whether binding was seen depends on the method and setting. In cells and extracts the contact can be indirect. These calls come from enrichment with a bait or labelling near it, and not all partners need be listed.

Among the data in paper PMC10552648 are binding values, retold here.

The assay deals with T1, ZDHHC19-TurboID (mouse) (UniProt Q810M5).
T1 sequence: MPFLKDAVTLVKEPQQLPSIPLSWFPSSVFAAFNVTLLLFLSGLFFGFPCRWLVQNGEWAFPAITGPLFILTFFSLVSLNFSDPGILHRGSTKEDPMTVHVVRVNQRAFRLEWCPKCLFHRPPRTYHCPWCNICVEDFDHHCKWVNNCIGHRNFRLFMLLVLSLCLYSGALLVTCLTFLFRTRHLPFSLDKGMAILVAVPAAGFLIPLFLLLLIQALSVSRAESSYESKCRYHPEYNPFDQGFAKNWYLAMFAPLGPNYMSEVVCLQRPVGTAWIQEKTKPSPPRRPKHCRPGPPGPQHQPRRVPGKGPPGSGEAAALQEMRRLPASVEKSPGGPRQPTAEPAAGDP
Briefly: proximity labelling; ZDHHC19-TurboID in HEK293T cells, 500 μM D-biotin 40 min 37°C; streptavidin-coated magnetic beads; blot with anti-p62 antibody.

On to “endogenous p62 (HEK293T cells) (from UniProt Q13501 1-440)”, for which the binding entry was “binds”.
